Measurements: patent publication US4130645A (priority 1978, dated 1978)
Where “and” joins values, the source holds several entries; their conditions need not be identical. Identical values can stand only once. The name of at least one read-out is uncertain.

Tested on: Erysiphe graminis f. sp. hordei
Details: in vivo

O=[N+]([O-])Nc1c(Cl)c(Cl)cc(Cl)c1Cl [drawing 123]
Barley Powdery Mildew Percent Disease Control: 87% and 71%
